Results on 2 substances are retold here after patent US20070134693A1, “Method for modulating the binding activity of a novel ICAM-3 binding receptor on sinusoidal endothelial cells in liver and lymph nodes” (priority 2000, published 2007).

Amino acid sequences for entries named in this document (tags omitted). A change or cut given only in a name is not applied to a line headed by its entry.
UniProt Q9NNX6: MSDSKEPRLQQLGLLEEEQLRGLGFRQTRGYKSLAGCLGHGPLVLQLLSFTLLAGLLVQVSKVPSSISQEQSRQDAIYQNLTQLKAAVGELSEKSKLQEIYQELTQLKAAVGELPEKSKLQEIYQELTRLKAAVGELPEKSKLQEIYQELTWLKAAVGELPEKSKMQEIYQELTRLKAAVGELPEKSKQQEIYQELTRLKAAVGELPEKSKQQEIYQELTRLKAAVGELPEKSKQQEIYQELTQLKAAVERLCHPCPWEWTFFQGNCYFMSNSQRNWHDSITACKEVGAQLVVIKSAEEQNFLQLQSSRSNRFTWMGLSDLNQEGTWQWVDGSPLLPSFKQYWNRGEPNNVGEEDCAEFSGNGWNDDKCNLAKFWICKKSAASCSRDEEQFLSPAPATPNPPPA
UniProt Q9H2X3: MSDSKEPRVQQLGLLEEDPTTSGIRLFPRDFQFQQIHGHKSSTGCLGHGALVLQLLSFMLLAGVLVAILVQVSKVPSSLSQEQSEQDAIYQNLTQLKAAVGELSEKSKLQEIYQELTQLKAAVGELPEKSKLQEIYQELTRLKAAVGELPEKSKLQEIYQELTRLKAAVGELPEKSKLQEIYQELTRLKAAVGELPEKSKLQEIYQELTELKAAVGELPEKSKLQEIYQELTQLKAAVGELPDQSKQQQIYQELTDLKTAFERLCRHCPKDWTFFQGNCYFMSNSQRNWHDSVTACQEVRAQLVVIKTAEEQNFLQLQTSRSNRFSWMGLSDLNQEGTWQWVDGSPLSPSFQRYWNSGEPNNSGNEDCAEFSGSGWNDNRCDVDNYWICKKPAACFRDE

No constants are given. Whether binding was seen depends on the method and setting. Some entries that bind do so weakly or less than the wild type.

Test [1] addresses T1, ICAM-3 (UniProt P32942).
T1 sequence (looked up): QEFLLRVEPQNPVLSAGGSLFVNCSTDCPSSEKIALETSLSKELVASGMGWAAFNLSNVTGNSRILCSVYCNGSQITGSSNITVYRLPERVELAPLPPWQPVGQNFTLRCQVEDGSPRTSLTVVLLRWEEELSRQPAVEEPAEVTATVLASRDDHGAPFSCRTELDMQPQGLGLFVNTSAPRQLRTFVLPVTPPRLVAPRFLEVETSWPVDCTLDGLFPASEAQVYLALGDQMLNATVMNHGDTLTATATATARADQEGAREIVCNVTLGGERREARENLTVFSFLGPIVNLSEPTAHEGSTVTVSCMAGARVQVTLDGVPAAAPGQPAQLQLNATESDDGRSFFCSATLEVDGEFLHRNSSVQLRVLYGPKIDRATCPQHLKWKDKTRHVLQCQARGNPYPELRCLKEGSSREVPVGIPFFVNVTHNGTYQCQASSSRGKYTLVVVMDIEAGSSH
Nature of the test: fluorescent bead adhesion assay on K562-DC-SIGN cells.

The target of test [2] is T1, ICAM-3. Kind of test: fluorescent bead adhesion assay on K562-L-SIGN cells.
For test [3], the target named is T1, ICAM-3. Nature of the test: flow cytometry-based fluorescent bead adhesion assay. (In general: Flow cytometry measures light scatter and fluorescence of single cells or particles in a stream.)

“DC-SIGN (from UniProt Q9NNX6 1-404) (receptor)”: the binding result with ICAM-3 [1] is on record as “binds”. Take “L-SIGN (liver/lymph node-specific ICAM-3 grabbing nonintegrin) (from UniProt Q9H2X3 1-399) (receptor)”: the binding entry with ICAM-3 [2] and in the test with ICAM-3 [3] was “binds” each time.
